Results as given in patent publication US20190276561A1.
Where a chain is given by its changes, count along the chain named. These are yes or no findings as the source states them, for the method shown. In cells and extracts the contact can be indirect. Some binding calls cover weakened binding; strength is not graded here. Blank lines part the entries; values can stand above or below the binder they belong to.

Tests used:
eTEV peptide (…) [1] = molecular target: T1, eTEV peptide (…); assay: pull-down on immobilised eTEV peptide (Example 1)
T1 sequence (peptide): RENLYFQGKDG

eTEV peptide (…) [2] = molecular target: T1, eTEV peptide (…); assay: pull-down from culture supernatant on immobilised eTEV peptide, SDS-PAGE

binding (eTEV peptide (…) [1]): binds | binding (eTEV peptide (…) [2]): binds
B1: 2H5 antibody-Fv-clasp (v2) (protein)
VH: AVQLVESGGGLVQPKESLKISCAAFGVTFSNVAMYWVRQAPGKGLEWIARIRTKPNNYATYYADSVKGRFTISRDDSKSMVYLQMDNLKTEDTAMYYCTAEVATDWGQGVMVTVCSRSDYEFLKSWTVEDLQKRLLALDPMMEQEIEEIRQKYQSKRQPILDAIEAKTGHHHHHH
VL: DVVLTQAPPTLSATIGQSVSISCRSSQSLLHRNGNTYLNWLLQRPGQPPQLLIYLVSRLESGVPNRFSGSGSGTAFTLKISGLEAEDLGVYYCVQGTHAPLTFGSGTKLEIKRGSDYEFLKSWTVEDLQKRLLALDPMMEQEIEEIRQKYQCKRQPILDAIEAKTGHHHHHH

binding (eTEV peptide (…) [2]): binds
B2: 2H5 antibody-Fv-clasp (without S-S) (protein)
VH: B1 VH with C115S
VL: B1 VL with C152S
